At least one structure is not confirmed: it was looked up by name or label, or the drawing left a doubt.
How the values were obtained:
[1] = system: NRAS mutant melanoma cells WM3000; experiment: Proliferation / cell cycle arrest by cdk4/6 inhibitor; format: cell-based, human; conditions: palbociclib 72 h
TERT = TERT mRNA levels by qRT-PCR after inhibitor treatment; format: cell-based, human

Row | Compound | proliferation arrest [1] | TERT levels (TERT; palbociclib 72 h, WM3000) | TERT mRNA levels (TERT; trametinib 100 nM, 24, 48, 72 h, WM3000 or WM3629)
1 | CC(=O)c1c(C)c2cnc(Nc3ccc(N4CCNCC4)cn3)nc2n(C2CCCC2)c1=O [palbociclib] | led to sustained proliferation arrest | did not significantly affect TERT levels | –
2 | CC(=O)Nc1cccc(-n2c(=O)n(C3CC3)c(=O)c3c(Nc4ccc(I)cc4F)n(C)c(=O)c(C)c32)c1 [trametinib] | – | – | downregulated TERT mRNA levels

Source: patent US20210113602A1, “USE OF 6-THIO-2'-DEOXYGUANOSINE (6-THIO-dG) TO TREAT MELANOMA” (The Board of Regents of the University of Texas System, priority 2018, published 2021)
